Test results: PubChem BioAssay AID445 (National Center for Advancing Translational Sciences (NCATS), 2006)
Some of the results follow. Further columns of the screen follow, without active or inactive calls. Compounds called inactive in the main read-out are mostly missing here. The note in brackets gives the kind of curve behind each potency; many fits are weak.

assay: IkB Signaling; settings: ABC-DLBCL IkBa-CBG/CBR dual luciferase ratio (green luciferase fused to IkBa over red control in OCI-Ly3 lymphoma cells), 4 h; measured here: control luc red channel unless noted
In short: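 Luminescence ratio of IκBα-fused green versus native red beetle luciferase in OCI-Ly3 cells, 4 h post-doxycycline with compound; red signal alone, scaled from basal (0%) to zero light (-100%), flagged nonspecific or cytotoxic effects.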

Row | SMILES | AC50
1 | Cn1nc(C(=O)Nc2cccc(C(F)(F)F)c2)c2c1-c1ccccc1S(=O)(=O)C2 | 12.6 µM [falling, partial curve]
2 | CCCN(CCC)S(=O)(=O)c1ccc(C(=O)N2CCn3c4c(c5cc(C)ccc53)CCCC42)cc1 (stereo not drawn) | 10 µM [falling, partial curve]
3 | CCOc1ccc(NS(=O)(=O)c2ccc3[nH]cc(C(=O)NCCc4ccccc4)c(=O)c3c2)cc1 | 31.6 µM [falling, single point]
4 | Cc1occc1C(=O)Nc1ccc2ccccc2c1 | 12.6 µM [falling, partial curve]
5 | Nc1nonc1-c1nc2ccccc2n1CC(=O)Nc1ccc(F)cc1 | 1.26 µM [falling, full curve, poor fit]
6 | COc1ccc(-c2nc(SCC(=O)NCc3ccco3)c(-c3ccccc3)[nH]2)cc1OC | 10 µM [falling, partial curve]
7 | Cc1ccc(S(=O)(=O)c2cn(CC(=O)Nc3ccccc3)c3cc4c(cc3c2=O)OCO4)cc1 | 1.26 µM [falling, full curve, poor fit]
8 | Cc1ccc(-c2nc(CS(=O)CC(=O)O)c(C)o2)cc1 (stereo not drawn) | 39.8 µM [falling, partial curve]
9 | COc1cccc(N2CCN(CC(=O)Nc3nnc(-c4ccccc4)s3)CC2)c1 | 12.6 µM [falling, partial curve]
10 | CC(=O)c1cccc(NC(=O)c2cc(C(C)C)on2)c1 | 20 µM [falling, single point]
11 | Cc1cccc(N2CCN(C(=O)c3ccc4c(c3)CCN4S(=O)(=O)c3ccccc3)CC2)c1C | 3.16 µM [falling, full curve]
12 | CCC(C(=O)Nc1cc(OC)ccc1OC)n1nc(-c2ccccc2)c2c(c1=O)CCCC2 (stereo not drawn) | 31.6 µM [falling, single point]
13 | CN(C)S(=O)(=O)N(CC(=O)NCCSc1ccc(Cl)cc1)c1ccccc1 | 25.1 µM [falling, partial curve]
14 | CCN(CC)S(=O)(=O)c1ccc2nnn(OCC(=O)Nc3cccc(C#N)c3)c2c1 | 12.6 µM [falling, partial curve]
15 | Cc1ccc(-n2ccnc(NCc3cccs3)c2=O)cc1C | 1.58 µM [rising, partial curve]
16 | Cc1cc(C)c2oc(C(=O)Nc3nc4ccc(Cl)cc4s3)cc(=O)c2c1 | 1.26 µM [rising, full curve]
17 | CC1CN(C(=O)Nc2ccc3snnc3c2)c2ccccc21 (stereo not drawn) | 20 µM [falling, single point]
18 | COc1ccccc1C(=O)NCCc1csc(-c2ccc(C(F)(F)F)cc2)n1 | 31.6 µM [falling, single point]

Exported as labelled records: part of the list above.
CN(C)S(=O)(=O)N(CC(=O)NCCSc1ccc(Cl)cc1)c1ccccc1
  AC50: 25.1 µM [falling, partial curve]
CCN(CC)S(=O)(=O)c1ccc2nnn(OCC(=O)Nc3cccc(C#N)c3)c2c1
  AC50: 12.6 µM [falling, partial curve]
